# Results taken from PubChem BioAssay AID1347076 (National Center for Advancing Translational Sciences (NCATS), 2019).
# Out of some 400,000 compounds screened, about 13,000 (3.2%) were called active. The shares of active, inactive and inconclusive entries below differ from those in the screen. Calls come from the whole dose curve; as a rule, active = well fitted cell-killing curve with a large enough effect; inconclusive = small, poorly fitted or top-dose-only effect, or effect the other way; inactive = flat fitted curve, though single readings scatter. Where the call is inconclusive, the potency comes from a doubtful curve fit.
# Assay: qHTS assay for MDR1-selective chemotherapeutics: Primary screen using the drug-selected MDR subline cells KB-V1; note: nearly all actives have a fitted effect of over 60% in size
# Conditions: KB-V1 MDR cells viability, CellTiter-Glo, 72 h; activity change, negative = cytotoxicity: at 46.1 µM (top of the series)
# In short: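 Drug-selected KB-V1 cells, grown in DMEM lacking phenol red with 10% FBS, receive compound titrations; after three days at 37 degrees C, surviving cell ATP is quantified by CellTiter-Glo luminescence and responses normalized and curve-fitted.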
# % is set by controls: 0 for no effect and ±100 for the full control effect; potency is the fitted concentration of half-maximal effect.
Structure (SMILES),Potency,"activity change, negative = cytotoxicity"
O=C(CCc1cn2ccccc2n1)NC1CCCc2c1cnn2-c1ccccc1F (stereo unspecified),"inconclusive: 0.92 µM [rising, partial curve, poor fit]",
COc1ccc(CCN(CC(=O)NC(C)(C)C)C(=O)Cn2nnc(-c3ccc(C)o3)n2)cc1OC,inactive,
COc1cccc(N2CCN(C(=O)c3ccc(-c4ccccc4)cc3)CC2)c1,inactive,
CCCCCCOC(=O)C(C#N)c1nc2ccccc2nc1N1CCN(C)CC1 (stereo unspecified),"inconclusive: 14.6 µM [cytotoxic, partial curve, poor fit]",
Cc1cccc(Nc2nnc(SCC(=O)NC3CCCc4ccccc43)s2)c1 (stereo unspecified),"inconclusive: 29.1 µM [cytotoxic, single point]",
O=C(CSc1ncccn1)N/N=C/c1cccc([N+](=O)[O-])c1,"inconclusive: 9.2 µM [rising, partial curve]",
COC(=O)c1cc(-c2ccc(Cl)cc2)n[nH]1,inactive,
CC(C)Cn1c(SC(C)C(=O)NC2CC2)nnc1-c1ccccc1F (stereo unspecified),"inconclusive: 2.59 µM [rising, full curve]",
CCOC(=O)c1nnc2cc(-c3ccccc3)nn2c1C,"inconclusive: 20.6 µM [cytotoxic, single point]",
CCOC(=O)C1=C(C)NC(SCC(=O)O)=C(C#N)C1c1ccco1 (stereo unspecified),inactive,
COc1ccc(Cl)cc1NC(=O)C(=O)NCc1ccncc1,inactive,
C=Cc1ccc(Cn2c(C)c(C(=O)NCc3cccc(C)c3)sc2=O)cc1,"inconclusive: 18.4 µM [cytotoxic, partial curve, poor fit]",
CCOc1cc(CNCc2cc(OC)cc(OC)c2)ccc1OC,"inconclusive: 11.6 µM [cytotoxic, partial curve, poor fit]",
O=C(NCCO)C(=O)c1c(-c2ccccc2)cc2ccccn12,"inconclusive: 4.61 µM [rising, partial curve, poor fit]",
C[C@H]1CN([C@@H](C)CO)C(=O)Cc2cc(NS(=O)(=O)c3cccs3)ccc2O[C@H]1CN(C)S(=O)(=O)c1cn(C)cn1,inactive,
Cc1nc2c(OCCC3CCCCC3)cccn2c1N(C)C(=O)CCC1CCCC1,"inconclusive: 23.1 µM [cytotoxic, single point]",
Cc1[nH]n(-c2ccccc2)c(=O)c1/C=N/O,inactive,
O=C(Nc1cc(N2CCCCC2)ncn1)c1ccccc1,"inconclusive: 7.31 µM [cytotoxic, partial curve, poor fit]",
CCn1c(-c2ccccc2)ccc(C#N)c1=O,inactive,
CCOC(=O)N1CCN(CCCc2ccccc2)CC1,inactive,
O=C(c1ccc2c(c1)OCCO2)C1CCN(S(=O)(=O)c2ccccc2F)CC1,active: 23.1 µM,
Cc1ccc(C)c(NC(=S)NC(NC(=O)OCc2ccccc2)C(Cl)(Cl)Cl)c1 (stereo unspecified),active: 14.6 µM,
Cc1cc(N2CCN(S(=O)(=O)c3ccc(Br)cc3)CC2)n2ncnc2n1,"inconclusive: 11.6 µM [cytotoxic, partial curve]",
COc1ccc(S(=O)(=O)N(CCc2ccccc2)CC(=O)Nc2cccc(OC)c2)cc1,inactive,

# 6 compounds from above, ordered by formula weight, high to low.
Structure (SMILES),Potency,"activity change, negative = cytotoxicity"
C[C@H]1CN([C@@H](C)CO)C(=O)Cc2cc(NS(=O)(=O)c3cccs3)ccc2O[C@H]1CN(C)S(=O)(=O)c1cn(C)cn1,inactive,
Cc1ccc(C)c(NC(=S)NC(NC(=O)OCc2ccccc2)C(Cl)(Cl)Cl)c1 (stereo unspecified),active: 14.6 µM,
Cc1cc(N2CCN(S(=O)(=O)c3ccc(Br)cc3)CC2)n2ncnc2n1,"inconclusive: 11.6 µM [cytotoxic, partial curve]",
O=C(CCc1cn2ccccc2n1)NC1CCCc2c1cnn2-c1ccccc1F (stereo unspecified),"inconclusive: 0.92 µM [rising, partial curve, poor fit]",
CCOc1cc(CNCc2cc(OC)cc(OC)c2)ccc1OC,"inconclusive: 11.6 µM [cytotoxic, partial curve, poor fit]",
COC(=O)c1cc(-c2ccc(Cl)cc2)n[nH]1,inactive,

# Remaining list, next part:

Structure (SMILES),Potency,"activity change, negative = cytotoxicity"
COc1ccc(NC(=O)CCOc2ccc(C)cc2)cc1S(=O)(=O)N1CCOCC1,active: 18.4 µM,
CN1CCN(c2nc3ccccn3c(=O)c2C=C(C#N)C#N)CC1,"inconclusive: 18.4 µM [rising, single point]",
CC(C)(C)c1ccc(Oc2ccc(NC(=O)c3ccco3)cn2)cc1,"inconclusive: 20.6 µM [cytotoxic, single point]",
CC(=O)c1c(N2CCN(c3cccc(Cl)c3)CC2)nc(=S)n(-c2ccccc2)c1C,inactive,
COc1ccccc1NS(=O)(=O)c1ccc2oc(SCc3ccc(F)cc3)nc2c1,"inconclusive: 13 µM [cytotoxic, partial curve]",
CC(C)=CCC12Oc3cc(O)ccc3C1(O)Oc1cc(O)c([C@H]3C=C(C)CC(c4ccc(O)cc4O)[C@H]3C(=O)c3ccc(O)cc3O)c(O)c1C2=O (stereo partly specified),"inconclusive: 8.2 µM [rising, partial curve, poor fit]",
O=C(CN1C2CCCC1CC(NC(=O)c1ccccc1)C2)Nc1nccs1 (stereo unspecified),active: 2.31 µM,
CC1=NN(C(N)=S)C(=O)C1N=Nc1ccccc1C (stereo unspecified),"inconclusive: 25.9 µM [cytotoxic, single point]",
COc1ccc(OC)c(C(=O)NC2CC(C)(C)Cc3c2cnn3-c2ccccc2)c1 (stereo unspecified),,inconclusive: -19.4%
Cc1ccc(-n2cc(CN(C)Cc3ncc[nH]3)c(-c3cccc(C)c3)n2)cc1,"inconclusive: 29.1 µM [cytotoxic, single point]",
CC(C)(C)c1ccc(OCc2ccc(C(=O)N3CCOCC3)o2)cc1,active: 25.9 µM,
Cc1ccc(Nc2nc(NCc3ccco3)nc3nccnc23)cc1Cl,inactive,
CCOc1ccc(CCNC(=O)CS(=O)(=O)Cc2nc(-c3cccc(OC)c3)oc2C)cc1,"inconclusive: 1.46 µM [cytotoxic, partial curve, poor fit]",
CCCn1nnc(NC(=O)c2cc3ccccc3o2)n1,"inconclusive: 0.231 µM [rising, full curve]",
O=c1c(OC2OC(CO)C(O)C(O)C2OC2OC(CO)C(O)C(O)C2OC2OC(CO)C(O)C(O)C2O)c(-c2ccc(O)c(O)c2)oc2cc(O)cc(O)c12 (stereo unspecified),"inconclusive: 29.1 µM [rising, single point]",
CCSc1nnc(NS(=O)(=O)c2ccc(OC)cc2)s1,"inconclusive: 29.1 µM [rising, single point]",
COc1ccccc1NC(=O)c1c(O)c2ccccc2[nH]c1=O,"inconclusive: 23.1 µM [cytotoxic, single point]",
Cc1cccc(C(=O)N[C@H](C(=O)Nc2nc3ccccc3[nH]2)C(C)C)c1,"inconclusive: 6.51 µM [cytotoxic, partial curve]",
C=CC1=CCN(S(=O)C(C)(C)C)[C@@H]1CCO (stereo partly specified),inactive,
O=C1N=C(N2CCCCC2)SC1=C1CCCC1,"inconclusive: 16.4 µM [cytotoxic, partial curve]",
COc1cc(-c2coc3c(C(=O)NCc4ccccc4)cccc23)ccc1O,inactive,
CN1C(=O)C(=O)/C(=C(/O)c2ccc(Br)cc2)C1c1ccc(Cl)cc1 (stereo unspecified),"inconclusive: 18.4 µM [rising, partial curve]",
CCOC(=O)C1CCN(C(=O)COC(=O)CNC(=O)c2ccc(OC)cc2)CC1,inactive,
Cc1csc2ncc(C(=O)NCc3ccccn3)c(=O)n12,"inconclusive: 20.6 µM [rising, single point]",

Structure (SMILES),Potency,"activity change, negative = cytotoxicity"
Brc1ccc(-c2n(-c3ccccn3)c3ccccc3[n+]2-c2ccccn2)cc1,"inconclusive: 9.2 µM [cytotoxic, partial curve]",
C[C@H](CO)N1C[C@H](C)[C@@H](CN(C)S(=O)(=O)c2cccs2)Oc2c(NS(=O)(=O)c3ccc(F)cc3)cccc2C1=O,inactive,
O=C(CSCc1c(F)cccc1Cl)NCc1cccnc1,"inconclusive: 18.4 µM [cytotoxic, single point]",
COc1ccc2nc(C)cc(Sc3nc4ccccc4s3)c2c1,active: 18.4 µM,
COc1cccc(CN2Cc3cccc4c3[C@H](C=CC4)CC2=O)c1,"inconclusive: 23.1 µM [cytotoxic, partial curve]",
CCNC(=O)C1(C)CCCN(C(=O)c2cc(OC)ccc2Br)C1 (stereo unspecified),inactive,
COc1cc(/C(C)=N/NC(=O)c2nnn(-c3nonc3N)c2-c2cccs2)ccc1O,"inconclusive: 29.1 µM [rising, single point]",
COc1ccc(Br)cc1C1=CC(=O)C[C@H](c2ccc(F)cc2)C1,active: 16.4 µM,
COc1ccc(-c2nc3sc(CCNC(=O)c4cc(Cl)ccc4OC)c(C)n3n2)cc1,inactive,
Cc1ccc(-n2c(C)cc(C(=O)CN3CCOCC3)c2C)cc1C,"inconclusive: 16.4 µM [cytotoxic, single point]",
CC(C)COC(=O)c1ccc2c(c1O)C(=O)c1ccccc1C2=O,active: 14.6 µM,
O=C(NCC(c1cccs1)N1CCOCC1)C1CCN(S(=O)(=O)c2cc(Cl)ccc2Cl)CC1 (stereo unspecified),active: 9.2 µM,
Cc1oc2c(cc(NS(=O)(=O)c3ccc4c5c(cccc35)C(=O)N4)c3ccccc32)c1C(=O)OC(C)C,"inconclusive: 20.6 µM [cytotoxic, single point]",
Cc1ccccc1NS(=O)(=O)c1ccc(Br)s1,,inconclusive: -9.61%
CC1=NN(c2nc(-c3ccc(Cl)cc3)cs2)C(=O)C1,"inconclusive: 20.6 µM [cytotoxic, partial curve, poor fit]",
O=C(NC1CC1)c1cccc2c1C(=O)c1ccc(N3CCC(Cc4ccccc4)CC3)cc1S2(=O)=O,"inconclusive: 11.6 µM [cytotoxic, partial curve, poor fit]",
CCCc1nc(SCC(=O)Nc2cc(C)on2)c2ccccc2n1,"inconclusive: 29.1 µM [cytotoxic, single point]",
O=C1CC(c2ccc(F)cc2)c2cc3c(cc2N1)CCC3 (stereo unspecified),"inconclusive: 29.1 µM [cytotoxic, single point]",
CC(O)(c1ccc(F)c(F)c1)c1nc(-c2cnc3ccccc3c2)cs1 (stereo unspecified),inactive,
COc1ccccc1N1CCN(C(=O)c2ccccc2SCC(=O)N2CCCC2)CC1,"inconclusive: 16.4 µM [cytotoxic, single point]",
C=CCN=C1CCCc2c1[nH]c1ccc(C)cc21,active: 3.26 µM,
CN(Cc1ccccc1)S(=O)(=O)c1ccc(F)c(C(=O)Nc2cccc(Cl)c2Cl)c1,"inconclusive: 16.4 µM [rising, single point]",
COc1ccc(C)cc1S(=O)(=O)N(CC(=O)N1CCCC1)c1ccc(C)cc1,"inconclusive: 5.17 µM [cytotoxic, full curve]",
